Data source: PubChem BioAssay AID1259405 (NCATS, 2018)

Screen: 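Mouse-designed siRNAs used to find CHO productivity engineering targets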 (primary screen)
System: Chinese hamster CHO-K1 ovary cells with stable secreted eGFP expression
Reagent: single siRNA against mouse genes, 0.8 pmol siRNA per well (2 µl of 400 nM stock)
Timing: 3 days
Measured: 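Percent of the per-plate non-targeting control median for intracellular GFP per well by laser scanning cytometry and for cell viability by ATP luminescence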
Direction: GFP, % of control: higher = more GFP per well, higher productivity; viability (ATP), % of control: higher = more viable cells (more ATP)
Active means: 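Called active when intracellular GFP, relative to negative control, is at or above 120%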
In all, the deposit lists about 50,000 reagents; this is a random part of them. About 4,000 of all reagents (8%) count as active. 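Mouse siRNA library applied to hamster cells; one well for each siRNA.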

Target gene	PubChem SID	GFP, % of control	viability (ATP), % of control	Call
Tex46 (testis expressed 46)	SID363542439	54.6	59.1	inactive
Tex46 (testis expressed 46)	SID363551930	73.6	33.2	inactive
Tex46 (testis expressed 46)	SID363559535	56.1	55.3	inactive
Gga1	SID363547763	125	76.5	active
Gga1	SID363558532	92.4	78	inactive
Gga1	SID363560290	89.8	89.6	inactive
Calcoco1 (calcium binding and coiled coil domain 1)	SID363543539	122	66.1	active
Calcoco1 (calcium binding and coiled coil domain 1)	SID363553032	189	124	active
Calcoco1 (calcium binding and coiled coil domain 1)	SID363558880	60.2	70.4	inactive
Or51f2 (olfactory receptor family 51 subfamily F member 2)	SID363554358	142	100	active
Or51f2 (olfactory receptor family 51 subfamily F member 2)	SID363567805	121	63.5	active
Or51f2 (olfactory receptor family 51 subfamily F member 2)	SID363585162	37.9	79	inactive
Sprr2h (small proline-rich protein 2H)	SID363556491	62.6	56	inactive
Sprr2h (small proline-rich protein 2H)	SID363586941	97.6	111	inactive
Sprr2h (small proline-rich protein 2H)	SID363589049	144	124	active
Ubl7 (ubiquitin-like 7 (bone marrow stromal cell-derived))	SID363543407	124	82.9	active
Ubl7 (ubiquitin-like 7 (bone marrow stromal cell-derived))	SID363552900	143	74.5	active
Ubl7 (ubiquitin-like 7 (bone marrow stromal cell-derived))	SID363558748	80.3	101	inactive
Plk2 (polo like kinase 2)	SID363570990	97	100	inactive
Eef1e1 (eukaryotic translation elongation factor 1 epsilon 1)	SID363572395	75.7	82.9	inactive
Eef1e1 (eukaryotic translation elongation factor 1 epsilon 1)	SID363574155	73.1	86.2	inactive
Knstrn (kinetochore-localized astrin/SPAG5 binding)	SID363539505	80.3	61.7	inactive
Knstrn (kinetochore-localized astrin/SPAG5 binding)	SID363560806	79.1	70.8	inactive
Knstrn (kinetochore-localized astrin/SPAG5 binding)	SID363564896	62.4	66.5	inactive
Oplah (5-oxoprolinase (ATP-hydrolysing))	SID363545577	123	127	active
Oplah (5-oxoprolinase (ATP-hydrolysing))	SID363549090	86.6	64.2	inactive
Oplah (5-oxoprolinase (ATP-hydrolysing))	SID363562896	101	74.7	inactive
H2-M10.2 (histocompatibility 2, M region locus 10.2)	SID363553711	73.5	63.6	inactive
H2-M10.2 (histocompatibility 2, M region locus 10.2)	SID363561668	104	74.2	inactive
H2-M10.2 (histocompatibility 2, M region locus 10.2)	SID363565406	90.1	83.2	inactive
Efcab11 (EF-hand calcium binding domain 11)	SID363543935	111	60.3	inactive
Efcab11 (EF-hand calcium binding domain 11)	SID363551671	71	66.8	inactive
Efcab11 (EF-hand calcium binding domain 11)	SID363559276	81.5	59.3	inactive
Prss39 (serine protease 39)	SID363547494	48.7	71.1	inactive
Prss39 (serine protease 39)	SID363558263	62.6	72.3	inactive
Prss39 (serine protease 39)	SID363560021	85.6	90	inactive
Snx5 (sorting nexin 5)	SID363582416	76.5	96.4	inactive
Snx5 (sorting nexin 5)	SID363584176	72.8	86.7	inactive
Scn7a (sodium channel, voltage-gated, type VII, alpha)	SID363574735	82.9	89.5	inactive
Scn7a (sodium channel, voltage-gated, type VII, alpha)	SID363575791	21.8	25.5	inactive
Scn7a (sodium channel, voltage-gated, type VII, alpha)	SID363580367	102	87.5	inactive
Ldoc1 (regulator of NFKB signaling)	SID363540497	52.1	64.9	inactive
Ldoc1 (regulator of NFKB signaling)	SID363542249	32.9	71	inactive
Ldoc1 (regulator of NFKB signaling)	SID363567165	116	91.2	inactive
Slco4a1	SID363575176	57.9	52.8	inactive
Slco4a1	SID363580808	114	87.9	inactive
Slco4a1	SID363582920	80	66.1	inactive
Socs2 (suppressor of cytokine signaling 2)	SID363554906	103	30.2	inactive
Socs2 (suppressor of cytokine signaling 2)	SID363568353	161	61.8	active
Socs2 (suppressor of cytokine signaling 2)	SID363586412	53.9	60.1	inactive
Frs3 (fibroblast growth factor receptor substrate 3)	SID363539885	73.4	47.2	inactive
Frs3 (fibroblast growth factor receptor substrate 3)	SID363561186	127	83.4	active
Frs3 (fibroblast growth factor receptor substrate 3)	SID363564222	114	85.2	inactive
Scgb1b2 (secretoglobin, family 1B, member 2)	SID363562347	66	68.7	inactive
Scgb1b2 (secretoglobin, family 1B, member 2)	SID363567485	115	86.6	inactive
Scgb1b2 (secretoglobin, family 1B, member 2)	SID363584842	82.8	51.4	inactive
Enox2 (ecto-NOX disulfide-thiol exchanger 2)	SID363545596	51.8	49.4	inactive
Enox2 (ecto-NOX disulfide-thiol exchanger 2)	SID363549109	47	48.1	inactive
Enox2 (ecto-NOX disulfide-thiol exchanger 2)	SID363562915	52.3	77	inactive
Elavl2 (ELAV like RNA binding protein 2)	SID363569641	118	119	inactive
Elavl2 (ELAV like RNA binding protein 2)	SID363577385	32.4	43.2	inactive
Elavl2 (ELAV like RNA binding protein 2)	SID363578793	98.5	94.7	inactive
Paqr7 (progestin and adipoQ receptor family member VII)	SID363571166	83.3	88.4	inactive
Paqr7 (progestin and adipoQ receptor family member VII)	SID363571518	90.1	82.9	inactive
Paqr7 (progestin and adipoQ receptor family member VII)	SID363571870	68	68.8	inactive
Kcnip4 (Kv channel interacting protein 4)	SID363553638	37.8	45.1	inactive
Kcnip4 (Kv channel interacting protein 4)	SID363561595	50	49.5	inactive
Kcnip4 (Kv channel interacting protein 4)	SID363565333	96.7	72.9	inactive
Slc44a1	SID363547670	137	71.8	active
Slc44a1	SID363558439	26.5	14.6	inactive
Slc44a1	SID363560197	77.8	64.4	inactive
Cyp4b1 (cytochrome P450, family 4, subfamily b, polypeptide 1)	SID363573086	108	106	inactive
Cyp4b1 (cytochrome P450, family 4, subfamily b, polypeptide 1)	SID363577662	78.4	68.4	inactive
Cyp4b1 (cytochrome P450, family 4, subfamily b, polypeptide 1)	SID363581182	105	90.5	inactive
Marchf7 (membrane associated ring-CH-type finger 7)	SID363546611	38.2	46.8	inactive
Marchf7 (membrane associated ring-CH-type finger 7)	SID363548367	64.6	67.4	inactive
Marchf7 (membrane associated ring-CH-type finger 7)	SID363560545	87.4	103	inactive
Lman1l (lectin, mannose-binding 1 like)	SID363553839	53.2	57.4	inactive
Lman1l (lectin, mannose-binding 1 like)	SID363561796	69.5	40.7	inactive
Lman1l (lectin, mannose-binding 1 like)	SID363565534	54.5	69.7	inactive
Hpca (hippocalcin)	SID363582668	84.1	92.5	inactive
Hpca (hippocalcin)	SID363584428	71.8	83	inactive
Mmel1 (membrane metalloendopeptidase like 1)	SID363574542	67.1	98.6	inactive
Mmel1 (membrane metalloendopeptidase like 1)	SID363575598	60.3	49.9	inactive
Mmel1 (membrane metalloendopeptidase like 1)	SID363580174	22.3	42	inactive
